For 42 compounds, relative cell density results are on record in the supplement of paper PMC9226226.

The subject of this assay is Werner syndrome hMSCs (WRN-/-). Put plainly: relative cell density (fold change vs vehicle control); higher = more proliferation (geroprotective). The note with it: concentration (umol/L): 1, 6 days.

“And” between values parts separate entries of the source, which are not always exact repeats. Equal values may be shown once. Some of the results follow. Several reference drugs read as weak here; read low effects with care.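 The cells are human mesenchymal stem cells that lack the Werner syndrome gene and age prematurely. Growth was tracked by automated live-cell imaging in three biological repeats, and the twenty drugs that most raised growth over vehicle were taken forward, with no fixed cutoff stated.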

Consider `CC(=O)O[C@@]12CO[C@@H]1C[C@H](O)[C@@]1(C)C(=O)[C@H](O)C3=C(C)[C@@H](OC(=O)[C@H](O)[C@@H](NC(=O)OC(C)(C)C)c4ccccc4)C[C@@](O)([C@@H](OC(=O)c4ccccc4)[C@H]21)C3(C)C`, for which the relative cell density (vehicle: DMSO) is 0.493 and 0.381.

For the compound `Nc1ccn([C@@H]2O[C@H](CO)[C@@H](O)C2(F)F)c(=O)n1`, the relative cell density was determined as 0.874 (vehicle: DMSO) and 0.442 (vehicle: Water).

As for `CO[C@H]1C[C@@H]2CC[C@@H](C)[C@@](O)(O2)C(=O)C(=O)N2CCCC[C@H]2C(=O)O[C@H]([C@H](C)C[C@@H]2CC[C@@H](OCCO)[C@H](OC)C2)CC(=O)[C@H](C)/C=C(\C)[C@@H](O)[C@@H](OC)C(=O)[C@H](C)C[C@H](C)/C=C/C=C/C=C/1C`, the relative cell density (vehicle: DMSO) was found to be 0.761.

The compound `CN(C)CCN(Cc1ccccc1)c1ccccn1` registered a relative cell density (vehicle: Water) of 1.06.

On to `CC1CNc2c(cccc2S(=O)(=O)N[C@@H](CCCNC(=N)N)C(=O)N2CC[C@@H](C)C[C@@H]2C(=O)O)C1` (some centres undefined), for which the relative cell density (vehicle: DMSO) was 1.18 and 1.17.

For `C=C1/C(=C\C=C2/CCC[C@]3(C)[C@@H]([C@H](C)CCCC(C)C)CC[C@@H]23)C[C@@H](O)C[C@@H]1O`, the relative cell density (vehicle: DMSO) is 1.51.

Take `O=C(O)CCNC(=O)c1ccccc1`: where the note is “vehicle: DMSO”, the relative cell density worked out at 0.71.

In turn, `O=C(N[C@H](CO)[C@H](O)c1ccc([N+](=O)[O-])cc1)C(Cl)Cl` had a relative cell density (vehicle: DMSO) of 1.06.

For the compound `CCC[C@@H]1C[C@@H](C(=O)N[C@@H]([C@H]2O[C@H](SC)[C@H](O)[C@@H](O)[C@H]2O)[C@H](C)Cl)N(C)C1`, the relative cell density (vehicle: DMSO) was 0.866 and 1.03.

`CC1=NN(c2ccccc2)C(=O)C1`: the relative cell density (vehicle: DMSO) was found to be 1.09.

Take `CCN(CC)CCNC(=O)c1cc(Cl)c(N)cc1OC`: the relative cell density (vehicle: DMSO) was 1.17.

In the case of `CC(C)(CO)C(O)C(=O)NCCCO` (centres undefined), the relative cell density (vehicle: DMSO) is 1.15.

`CCOc1ccc2ccccc2c1C(=O)N[C@@H]1C(=O)N2[C@@H]1SC(C)(C)[C@@H]2C(=O)O` showed a relative cell density (vehicle: DMSO) of 1.12.

In turn, `COc1cc2c(Oc3ccc(NC(=O)C4(C(=O)Nc5ccc(F)cc5)CC4)cc3F)ccnc2cc1OCCCN1CCOCC1` had a relative cell density (vehicle: DMSO) of 0.106.

In the case of `COc1ccccc1Oc1c(NS(=O)(=O)c2ccc(C(C)(C)C)cc2)nc(-c2ncccn2)nc1OCCO`, for the setting “vehicle: DMSO”, the relative cell density turned out to be 1.

`CN(C)CCC=C1c2ccccc2COc2ccccc21` yielded a relative cell density (vehicle: DMSO) of 1.54.

On to `CC(C)[N+](C)(CCOC(=O)C1c2ccccc2Oc2ccccc21)C(C)C`, for which the relative cell density (vehicle: DMSO) worked out at 1.03.

`CN1CCC[C@@H]1Cc1c[nH]c2ccc(CCS(=O)(=O)c3ccccc3)cc12`: the relative cell density (vehicle: DMSO) amounted to 0.998.

In turn, `Cc1onc(-c2ccccc2Cl)c1C(=O)N[C@@H]1C(=O)N2[C@@H]1SC(C)(C)[C@@H]2C(=O)O` came in with a relative cell density (vehicle: DMSO) of 0.843.

As for `C#Cc1cccc(Nc2ncnc3cc(OCCOC)c(OCCOC)cc23)c1`, the relative cell density was determined as 0.763 (vehicle: DMSO) and 0.16 (vehicle: Water).

In the case of `NS(=O)(=O)c1cc2c(cc1Cl)NC(C(Cl)Cl)NS2(=O)=O` (centres undefined), the relative cell density (vehicle: DMSO) stood at 1.

With `CN[C@@H]1[C@H](O)[C@H](NC)[C@H]2O[C@@]3(O)C(=O)C[C@@H](C)O[C@H]3O[C@@H]2[C@H]1O`, the relative cell density (vehicle: DMSO) amounted to 0.919.

For the setting “vehicle: DMSO”, `CCCCCCOC(=O)NC(=N)c1ccc(NCc2nc3cc(C(=O)N(CCC(=O)OCC)c4ccccn4)ccc3n2C)cc1` came in with a relative cell density of 1.29.

Compound `NCCCC(=O)O` had a relative cell density (vehicle: Water) of 0.899.

Consider `COc1ccc(O)cc1`, for which the relative cell density (vehicle: DMSO) is 0.976.

In turn, `Cc1c(-c2ccccc2)oc2c(C(=O)OCCN3CCCCC3)cccc2c1=O` yielded a relative cell density (vehicle: Water) of 0.833.

As for `CC(=O)CCC=C(C)CCC=C(C)CCC=C(C)CCC=C(C)C`, the relative cell density (vehicle: DMSO) stood at 1.22.

`CC12CCC(CC1=O)C2(C)C` (centres undefined): the relative cell density (vehicle: DMSO) is 1.16.

Under “vehicle: DMSO”, `CCN(CC)CCOC(=O)c1ccc(N)cc1Cl` yielded a relative cell density of 1.

Take `C[C@](N)(Cc1ccc(O)c(O)c1)C(=O)O`: the relative cell density (vehicle: Water) was 1.16.

`Clc1ccc(C(Cn2ccnc2)OCc2ccsc2Cl)c(Cl)c1` (centres undefined) had a relative cell density (vehicle: DMSO) of 1.25.

Where the note is “vehicle: DMSO”, `COc1cc2c(cc1OC)CC(=O)N(CCCN(C)C[C@H]1Cc3cc(OC)c(OC)cc31)CC2` showed a relative cell density of 0.975.

`Cc1c(C(=O)NN2CCCCC2)nn(-c2ccc(Cl)cc2Cl)c1-c1ccc(Cl)cc1`: the relative cell density (vehicle: DMSO) turned out to be 0.975.

For `COc1nc2ccc(Br)cc2cc1[C@@H](c1ccccc1)[C@@](O)(CCN(C)C)c1cccc2ccccc12`, the relative cell density (vehicle: DMSO) is 1.1.

Under “vehicle: Water”, `O=C(O)C(=O)O.[NH-][C@@H]1CCCC[C@H]1[NH-].[Pt+2]` registered a relative cell density of 1.25.

For `Cc1ccc(NC(=O)c2ccc(CN3CCN(C)CC3)cc2)cc1Nc1nccc(-c2cccnc2)n1`, where the note is “vehicle: DMSO”, the relative cell density was 1.35 and 1.16.

The compound `CC(C)C(=O)Oc1ccc(CO)cc1[C@H](CCN(C(C)C)C(C)C)c1ccccc1` registered a relative cell density (vehicle: DMSO) of 1.13.

Compound `CCOC(=O)O[C@]1(C(=O)OCCl)CC[C@H]2[C@@H]3CCC4=CC(=O)C=C[C@]4(C)[C@H]3[C@@H](O)C[C@@]21C` came in with a relative cell density (vehicle: DMSO) of 1.02.

As to `C#CCN[C@@H]1CCc2ccccc21`, where the note is “vehicle: DMSO”, the relative cell density was 1.26.

The compound `CCOc1nc2cccc(C(=O)OCc3oc(=O)oc3C)c2n1Cc1ccc(-c2ccccc2-c2noc(=O)[nH]2)cc1` came in with a relative cell density (vehicle: DMSO) of 1.68.

`CN1c2cc(O)c(N=NC(N)=O)cc2CC1S(=O)(=O)O` (centres undefined) showed a relative cell density (vehicle: DMSO) of 1.04.

In turn, `O=C(O)c1cn(C2CC2)c2cc(N3CCNCC3)c(F)cc2c1=O` showed a relative cell density (vehicle: DMSO) of 1.31.
